Experimental data reported in US10980755B2, “LRH-1 modulators” (THE REGENTS OF THE UNIVERSITY OF CALIFORNIA, priority 2015, dated 2021).
“Also recorded” adds a separate entry of the source.

System: hLRH-1 expression
Experiment: hLRH-1 transcript (RT-qPCR) and protein (Western blot, anti-Flag) levels in HepG2-hLRH-1 cells
Format: cell-based, human

CCCNC(=O)c1cc(C(C)(C)C)cc(C(C)(C)C)c1O [Compound 8, 3,5-di-tert-butyl-2-hydroxy-N-propylbenzamide]
hLRH-1 transcripts (HepG2-hLRH-1 cells expressing low levels of hLRH-1, PME8 10 μM): did not change | hLRH-1 protein levels (HepG2-hLRH-1 cells, Western blot with anti-Flag antibody, listed as PME8): did not change; also recorded: unaffected
